Source: publication PMC6449874

Legend:
Test in all cases: pull-down; LUMIER pulldown: one protein fused to ProtA, the other to Rluc, each single-expressed in HEK293TM cells; lysis buffer 20 mM Tris pH 7.5, 250 mM NaCl, 1.1% Triton X-100, 10 mM EDTA, 10 mM DTT; sheep anti-rabbit IgG-coated Dynabeads, 1 h on ice; Rluc on the beads as percent of input; +: >= 2.5%, w: 1.5%-2.5%, -: < 1.5%; two grades in each cell
[1] = molecular target: T1, AtEGL3 (Arabidopsis thaliana) (UniProt Q9CAD0)
T1 sequence: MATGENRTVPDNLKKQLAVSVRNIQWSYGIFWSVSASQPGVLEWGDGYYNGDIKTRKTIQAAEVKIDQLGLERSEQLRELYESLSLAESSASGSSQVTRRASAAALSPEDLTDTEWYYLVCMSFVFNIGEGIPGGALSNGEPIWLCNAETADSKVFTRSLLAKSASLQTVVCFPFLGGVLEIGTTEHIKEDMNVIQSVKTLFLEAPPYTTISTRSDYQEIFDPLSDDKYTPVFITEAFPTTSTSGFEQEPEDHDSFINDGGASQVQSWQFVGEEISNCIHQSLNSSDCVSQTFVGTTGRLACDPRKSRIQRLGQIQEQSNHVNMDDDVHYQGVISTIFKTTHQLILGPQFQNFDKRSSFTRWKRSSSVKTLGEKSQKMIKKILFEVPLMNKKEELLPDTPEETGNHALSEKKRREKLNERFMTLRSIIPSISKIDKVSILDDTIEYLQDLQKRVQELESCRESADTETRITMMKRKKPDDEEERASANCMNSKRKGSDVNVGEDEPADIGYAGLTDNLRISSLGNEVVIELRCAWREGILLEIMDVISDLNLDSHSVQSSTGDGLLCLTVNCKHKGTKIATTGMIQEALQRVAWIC

[2] = molecular target: T2, AtTT8 (Arabidopsis thaliana) (UniProt Q9FT81)
T2 sequence: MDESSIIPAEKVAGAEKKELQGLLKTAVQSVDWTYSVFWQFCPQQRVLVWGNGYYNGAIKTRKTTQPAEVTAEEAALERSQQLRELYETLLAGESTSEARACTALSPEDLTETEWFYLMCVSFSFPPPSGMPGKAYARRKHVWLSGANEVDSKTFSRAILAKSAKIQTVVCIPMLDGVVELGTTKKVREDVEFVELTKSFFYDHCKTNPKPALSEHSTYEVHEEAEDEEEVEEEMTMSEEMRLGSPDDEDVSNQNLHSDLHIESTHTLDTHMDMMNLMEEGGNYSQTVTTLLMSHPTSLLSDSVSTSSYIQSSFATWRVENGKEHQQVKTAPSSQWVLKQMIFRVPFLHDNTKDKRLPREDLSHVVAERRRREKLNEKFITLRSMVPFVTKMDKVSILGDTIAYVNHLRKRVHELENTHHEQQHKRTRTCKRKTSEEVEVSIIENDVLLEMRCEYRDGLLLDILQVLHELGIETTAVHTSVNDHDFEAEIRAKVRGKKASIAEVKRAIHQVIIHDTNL

[3] = molecular target: T3, AtGL3 (Arabidopsis thaliana) (UniProt Q9FN69)
T3 sequence: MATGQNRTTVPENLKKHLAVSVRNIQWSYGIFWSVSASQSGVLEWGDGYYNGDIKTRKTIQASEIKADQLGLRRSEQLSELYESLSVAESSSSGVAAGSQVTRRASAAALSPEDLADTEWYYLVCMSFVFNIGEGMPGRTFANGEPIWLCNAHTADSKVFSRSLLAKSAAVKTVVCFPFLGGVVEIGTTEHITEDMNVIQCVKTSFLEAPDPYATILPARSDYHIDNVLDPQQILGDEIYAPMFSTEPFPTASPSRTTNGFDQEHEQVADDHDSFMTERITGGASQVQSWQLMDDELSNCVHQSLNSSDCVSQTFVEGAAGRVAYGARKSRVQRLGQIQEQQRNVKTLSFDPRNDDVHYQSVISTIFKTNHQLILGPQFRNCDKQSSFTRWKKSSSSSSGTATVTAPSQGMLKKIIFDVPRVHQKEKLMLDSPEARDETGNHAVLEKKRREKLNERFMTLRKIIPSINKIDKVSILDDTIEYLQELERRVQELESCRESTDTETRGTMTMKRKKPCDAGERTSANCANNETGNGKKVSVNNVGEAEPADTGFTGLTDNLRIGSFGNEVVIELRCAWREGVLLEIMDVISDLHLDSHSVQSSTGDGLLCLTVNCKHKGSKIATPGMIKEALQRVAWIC

[4] = molecular target: T4, … TESTA GLABRA1 (TTG1), Arabidopsis thaliana (Arabidopsis thaliana) (UniProt Q9XGN1)
T4 sequence: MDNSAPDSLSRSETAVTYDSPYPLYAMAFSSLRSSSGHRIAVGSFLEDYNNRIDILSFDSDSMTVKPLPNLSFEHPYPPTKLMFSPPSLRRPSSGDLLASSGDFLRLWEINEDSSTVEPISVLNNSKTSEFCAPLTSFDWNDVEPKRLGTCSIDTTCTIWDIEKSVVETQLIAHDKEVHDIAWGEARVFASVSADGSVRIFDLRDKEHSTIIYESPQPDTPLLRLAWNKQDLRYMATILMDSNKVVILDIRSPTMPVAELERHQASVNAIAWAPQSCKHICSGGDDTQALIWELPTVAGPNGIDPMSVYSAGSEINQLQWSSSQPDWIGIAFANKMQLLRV

[5] = molecular target: T5, AtMYC1 (Arabidopsis thaliana) (UniProt Q8W2F1)
T5 sequence: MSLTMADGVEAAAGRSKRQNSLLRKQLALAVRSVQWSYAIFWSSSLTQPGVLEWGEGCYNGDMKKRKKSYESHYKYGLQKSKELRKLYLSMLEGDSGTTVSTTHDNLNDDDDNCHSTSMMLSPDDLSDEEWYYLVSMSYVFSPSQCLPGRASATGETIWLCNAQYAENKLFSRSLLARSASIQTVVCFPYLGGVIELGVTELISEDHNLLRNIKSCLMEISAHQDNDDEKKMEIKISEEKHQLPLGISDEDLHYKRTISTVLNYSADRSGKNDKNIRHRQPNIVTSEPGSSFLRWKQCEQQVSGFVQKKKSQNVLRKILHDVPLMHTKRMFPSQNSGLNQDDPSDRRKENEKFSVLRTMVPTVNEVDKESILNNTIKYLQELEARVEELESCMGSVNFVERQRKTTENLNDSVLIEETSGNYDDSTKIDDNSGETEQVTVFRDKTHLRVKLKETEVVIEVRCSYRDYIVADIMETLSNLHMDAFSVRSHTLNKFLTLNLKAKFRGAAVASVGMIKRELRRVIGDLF

binding [1]	binding [2]	binding [3]	binding [4]	binding [5]	Substance
no binding	no binding	no binding	no binding	no binding	GhMYB25 (Gossypium hirsutum)
binds	binds	binds	no binding	binds	AaMYB23 (Arabis alpina)
binds	binds	binds	no binding	binds	AaWER (Arabis alpina)
binds	binds	binds	no binding	binds	GhRLC1 (Gossypium hirsutum)
binds	binds	binds	no binding	binds	AaPAPL (Arabis alpina)
binds	binds	binds	binds weakly	binds	ZmPL (Zea mays)
binds	binds	binds	no binding	binds	AaGL1 (Arabis alpina)
binds	binds	binds	no binding	binds	PhAN2 (Petunia hybrida)
binds	binds	binds	no binding	binds	GhMYB2 (Gossypium hirsutum)
binds	binds	binds	no binding	binds	GhMYB3 (Gossypium hirsutum)
no binding	no binding	no binding	no binding	no binding	ZmP1 (Zea mays)

Results are given in words; binding and its absence hold for the method and conditions named. Binding seen in cells or lysates may run through a third protein. Binding calls can cover weak binding; strength is not graded here. For some of these results: Tags and fused reporters may be left off the sequences shown.
